# Assay results as given in the supplement of paper PMC8728848.
# The other results are listed elsewhere or left out.
# B1: Mincle (Bos taurus) (protein)
# chain: MNSSTSPASQTERRCFSFQLFSWAIAGTSILLLSACFITRCVVTYSIFQLCDEKKFQPPGDSMELSCYNDGSGSVKNCCPLKWFHFQSSCYLFSPDTMSWRASLKNCSSMGAHLVVINTQEEQEFLYYTKPRKKEFYIGLTDQVTEGQWQWVDGTPFTKSLSFWDAGEPNNLVIVEDCATIRDSSNPRQNWNDVPCFFNMFRVCEMPERKI
# Experiments:
# Test in all cases: glycan array binding signal (z-score within array); higher = stronger binding
# Settings in all cases: glycan notation: IUPAC condensed, linker removed
# [1] = molecular target: GalNAc(b1-4)GlcNAc(b1-2)Man
# How it was run: (§1)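 Negative Z-scores can be read as non-binding. The Z-score is calculated within each array and then averaged across arrays of one protein sequence at different concentrations or buffers and across linkers. Arrays, 3228 in all, were curated from the Consortium for Functional Glycomics database and kept only where the protein sequence was available.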
# [2] = molecular target: GalNAc(b1-4)GlcNAc(b1-2)Man(a1-3)[GalNAc(b1-4)GlcNAc(b1-2)Man(a1-6)]Man(b1-4)GlcNAc(b1-4)GlcNAc
# How it was run: as §1
# [3] = molecular target: GalNAc(b1-4)GlcNAc(b1-3)GalNAc(b1-4)GlcNAc
# How it was run: as §1
# GalNAc(b1-4)GlcNAc6S = molecular target: GalNAc(b1-4)GlcNAc6S
# How it was run: as §1
# GalNAc(b1-6)GalNAc = molecular target: GalNAc(b1-6)GalNAc
# How it was run: as §1
# GalNAc3S(b1-4)GlcNAc = molecular target: GalNAc3S(b1-4)GlcNAc
# How it was run: as §1
# GalNAc3S(b1-4)GlcNAc3S = molecular target: GalNAc3S(b1-4)GlcNAc3S
# How it was run: as §1
# [4] = molecular target: GalNAc3S(b1-4)[Fuc(a1-3)]GlcNAc
# How it was run: as §1
# GalNAc4S6S(b1-4)GlcNAc = molecular target: GalNAc4S6S(b1-4)GlcNAc
# How it was run: as §1
# GalNAc6S(b1-4)GlcNAc = molecular target: GalNAc6S(b1-4)GlcNAc
# How it was run: as §1
# Glc(a1-4)Glc = molecular target: Glc(a1-4)Glc
# How it was run: as §1
# [5] = molecular target: Glc(a1-4)Glc(a1-4)Glc(a1-4)Glc
# How it was run: as §1
# Glc(a1-6)Glc(a1-6)Glc = molecular target: Glc(a1-6)Glc(a1-6)Glc
# How it was run: as §1
# [6] = molecular target: Glc(a1-6)Glc(a1-6)Glc(a1-6)Glc
# How it was run: as §1
# Glc(b1-4)Glc = molecular target: Glc(b1-4)Glc
# How it was run: as §1
# Glc(b1-6)Glc = molecular target: Glc(b1-6)Glc
# How it was run: as §1
# GlcA(b1-3)Gal = molecular target: GlcA(b1-3)Gal
# How it was run: as §1
# GlcA(b1-3)GlcNAc = molecular target: GlcA(b1-3)GlcNAc
# How it was run: as §1
# GlcA(b1-6)Gal = molecular target: GlcA(b1-6)Gal
# How it was run: as §1
# [7] = molecular target: GlcA3S(b1-3)Gal(b1-4)GlcNAc(b1-2)Man
# How it was run: as §1
# [8] = molecular target: GlcA3S(b1-3)Gal(b1-4)GlcNAc(b1-3)Gal(b1-4)Glc
# How it was run: as §1
# [9] = molecular target: GlcNAc(a1-3)Gal(b1-4)GlcNAc
# How it was run: as §1
# [10] = molecular target: GlcNAc(a1-4)Gal(b1-3)GlcNAc
# How it was run: as §1
# [11] = molecular target: GlcNAc(a1-4)Gal(b1-4)GalNAc
# How it was run: as §1
# [12] = molecular target: GlcNAc(a1-4)Gal(b1-4)GlcNAc
# How it was run: as §1
# [13] = molecular target: GlcNAc(a1-4)Gal(b1-4)GlcNAc(b1-3)Gal(b1-4)Glc
# How it was run: as §1
# [14] = molecular target: GlcNAc(a1-4)Gal(b1-4)GlcNAc(b1-3)Gal(b1-4)GlcNAc
# How it was run: as §1
# [15] = molecular target: GlcNAc(a1-4)Gal(b1-4)GlcNAc(b1-3)Gal(b1-4)GlcNAc(b1-3)Gal(b1-4)GlcNAc
# How it was run: as §1
# [16] = molecular target: GlcNAc(a1-4)Gal(b1-4)GlcNAc(b1-3)Gal(b1-4)[Fuc(a1-3)]GlcNAc(b1-3)Gal(b1-4)[Fuc(a1-3)]GlcNAc
# How it was run: as §1
# [17] = molecular target: GlcNAc(a1-6)Gal(b1-4)GlcNAc
# How it was run: as §1
# [18] = molecular target: GlcNAc(b1-2)Gal(b1-3)GalNAc
# How it was run: as §1
# [19] = molecular target: GlcNAc(b1-2)Man(a1-3)[GlcNAc(b1-2)Man(a1-6)]Man(b1-4)GlcNAc(b1-4)GlcNAc
# How it was run: as §1
# [20] = molecular target: GlcNAc(b1-2)Man(a1-3)[GlcNAc(b1-2)Man(a1-6)]Man(b1-4)GlcNAc(b1-4)[Fuc(a1-6)]GlcNAc
# How it was run: as §1
# [21] = molecular target: GlcNAc(b1-2)Man(a1-3)[GlcNAc(b1-4)][GlcNAc(b1-2)Man(a1-6)]Man(b1-4)GlcNAc(b1-4)GlcNAc
# How it was run: as §1
# [22] = molecular target: GlcNAc(b1-2)Man(a1-3)[GlcNAc(b1-4)][GlcNAc(b1-2)Man(a1-6)]Man(b1-4)GlcNAc(b1-4)[Fuc(a1-6)]GlcNAc
# How it was run: as §1
# [23] = molecular target: GlcNAc(b1-2)[GlcNAc(b1-4)]Man(a1-3)[GlcNAc(b1-2)Man(a1-6)]Man(b1-4)GlcNAc(b1-4)GlcNAc
# How it was run: as §1
# [24] = molecular target: GlcNAc(b1-2)[GlcNAc(b1-4)]Man(a1-3)[GlcNAc(b1-4)][GlcNAc(b1-2)Man(a1-6)]Man(b1-4)GlcNAc(b1-4)GlcNAc
# How it was run: as §1
# [25] = molecular target: GlcNAc(b1-2)[GlcNAc(b1-4)]Man(a1-3)[GlcNAc(b1-4)][GlcNAc(b1-2)[GlcNAc(b1-6)]Man(a1-6)]Man(b1-4)GlcNAc(b1-4)GlcNAc
# How it was run: as §1
# [26] = molecular target: GlcNAc(b1-2)[GlcNAc(b1-4)]Man(a1-3)[GlcNAc(b1-4)][GlcNAc(b1-2)[GlcNAc(b1-6)]Man(a1-6)]Man(b1-4)GlcNAc(b1-4)[Fuc(a1-6)]GlcNAc
# How it was run: as §1
# [27] = molecular target: GlcNAc(b1-2)[GlcNAc(b1-6)]Man(a1-6)[GlcNAc(b1-2)Man(a1-3)]Man(b1-4)GlcNAc(b1-4)GlcNAc
# How it was run: as §1
# [28] = molecular target: GlcNAc(b1-2)[GlcNAc(b1-6)]Man(a1-6)[GlcNAc(b1-2)Man(a1-3)]Man(b1-4)GlcNAc(b1-4)[Fuc(a1-6)]GlcNAc
# How it was run: as §1
# [29] = molecular target: GlcNAc(b1-2)[GlcNAc(b1-6)]Man(a1-6)[GlcNAc(b1-4)][GlcNAc(b1-2)Man(a1-3)]Man(b1-4)GlcNAc(b1-4)GlcNAc
# How it was run: as §1
# GlcNAc(b1-3)Fuc = molecular target: GlcNAc(b1-3)Fuc
# How it was run: as §1
# GlcNAc(b1-3)Gal = molecular target: GlcNAc(b1-3)Gal
# How it was run: as §1
# [30] = molecular target: GlcNAc(b1-3)Gal(b1-3)GalNAc
# How it was run: as §1
binder,measurement,setting,value
B1,glycan array binding signal (z-score),[1],-1.53
same,glycan array binding signal (z-score),[2],-0.279
same,glycan array binding signal (z-score),[3],-1.15
same,glycan array binding signal (z-score),GalNAc(b1-4)GlcNAc6S,-1.24
same,glycan array binding signal (z-score),GalNAc(b1-6)GalNAc,-0.574
same,glycan array binding signal (z-score),GalNAc3S(b1-4)GlcNAc,-0.525
same,glycan array binding signal (z-score),GalNAc3S(b1-4)GlcNAc3S,-0.009
same,glycan array binding signal (z-score),[4],-0.127
same,glycan array binding signal (z-score),GalNAc4S6S(b1-4)GlcNAc,-0.124
same,glycan array binding signal (z-score),GalNAc6S(b1-4)GlcNAc,-1.07
same,glycan array binding signal (z-score),Glc(a1-4)Glc,-0.009
same,glycan array binding signal (z-score),[5],-0.197
same,glycan array binding signal (z-score),Glc(a1-6)Glc(a1-6)Glc,-0.196
same,glycan array binding signal (z-score),[6],-0.241
same,glycan array binding signal (z-score),Glc(b1-4)Glc,-0.39
same,glycan array binding signal (z-score),Glc(b1-6)Glc,-0.207
same,glycan array binding signal (z-score),GlcA(b1-3)Gal,0.234
same,glycan array binding signal (z-score),GlcA(b1-3)GlcNAc,1.45
same,glycan array binding signal (z-score),GlcA(b1-6)Gal,0.667
same,glycan array binding signal (z-score),[7],0.4
same,glycan array binding signal (z-score),[8],-0.496
same,glycan array binding signal (z-score),[9],-0.605
same,glycan array binding signal (z-score),[10],-0.091
same,glycan array binding signal (z-score),[11],0.256
same,glycan array binding signal (z-score),[12],0.113
same,glycan array binding signal (z-score),[13],-0.075
same,glycan array binding signal (z-score),[14],-0.27
same,glycan array binding signal (z-score),[15],0.104
same,glycan array binding signal (z-score),[16],1.02
same,glycan array binding signal (z-score),[17],-0.264
same,glycan array binding signal (z-score),[18],-0.477
same,glycan array binding signal (z-score),[19],-0.423
same,glycan array binding signal (z-score),[20],0.096
same,glycan array binding signal (z-score),[21],-0.256
same,glycan array binding signal (z-score),[22],-0.582
same,glycan array binding signal (z-score),[23],-0.208
same,glycan array binding signal (z-score),[24],-0.443
same,glycan array binding signal (z-score),[25],-0.222
same,glycan array binding signal (z-score),[26],0.136
same,glycan array binding signal (z-score),[27],-0.042
same,glycan array binding signal (z-score),[28],0.676
same,glycan array binding signal (z-score),[29],-0.45
same,glycan array binding signal (z-score),GlcNAc(b1-3)Fuc,0.278
same,glycan array binding signal (z-score),GlcNAc(b1-3)Gal,-0.095
same,glycan array binding signal (z-score),[30],-0.293

# Some of the entries so far, with tabs:
binder	measurement	setting	value
B1	glycan array binding signal (z-score)	[4]	-0.127
same	glycan array binding signal (z-score)	GalNAc4S6S(b1-4)GlcNAc	-0.124
same	glycan array binding signal (z-score)	GalNAc6S(b1-4)GlcNAc	-1.07
